Article PMC12040169 (PLOS Biology, 2025)
This is one part of the list.

Tested on: T1, CTL2-GFP (C. trachomatis L2/434/Bu, GFP-expressing)
T1 construct: L2/434/Bu, GFP-expressing
Parameters: species or system HeLa; Intracellular C. trachomatis growth in HeLa cells, bulk GFP fluorescence relative to DMSO
Settings: bulk GFP, single well; 28.5 h, 10 µM; inhibitor

In order of falling “% of control remaining” value:
1. CS(=O)(=O)c1ccc(-c2cnc(N)c(NCCCO)n2)cc1 [CBK063587]  241.516%
2. O=C(O)c1cccc(-c2cn3ccnc3c(N3CCOCC3)n2)c1 [CBK038053]  210.058%
3. N#C/C(=C(/O)c1ccc(-c2ccc([N+](=O)[O-])cc2Cl)o1)c1nc(-c2ccc(F)cc2)cs1 [CBK266742]  162.982%
4. Cn1cc(CCNC(=O)N(Cc2ccccn2)CC2CCCO2)cn1 (stereo not drawn) [CBK306973]  162.727%
5. Cc1ccccc1OCc1nnc(SCC(=O)c2ccc3c(c2)Cc2ccccc2-3)n1C [CBK265829]  159.931%
6. CC(=O)Nc1ccc2nc(Nc3nc4c(F)cccc4s3)sc2c1 [CBK287475]  159.885%
7. CCC(C)(C)c1ccc(S(=O)(=O)N2CCCN(Cc3c[nH]c(=O)[nH]c3=O)CC2)cc1 [CBK062881]  157.15%
8. CCCC/C=C/c1cn2ccnc2c(N2CCOCC2)n1 [CBK038031]  150.279%
9. COCC(C)NC(=O)c1nn(-c2nc3ccccc3s2)c2ccccc12 (stereo not drawn) [CBK048488]  146.15%
10. COc1ccc2c(c1)c(C(=O)N1CC(C)(C)C(C)(O)C1)c(C)n2C (stereo not drawn) [CBK306896]  143.938%
11. Cc1ccn(-c2ccc(N3CCNCC3)nn2)n1 [CBK304680]  143.125%
12. CS(=O)(=O)Nc1ccc(C(=O)NCCN2CCOCC2)cc1 [CBK269781]  142.47%
13. O=C(Cn1nc(C(=O)O)c2ccccc2c1=O)c1ccc(C2CCCCC2)cc1 [CBK297538]  141.871%
14. COc1ccc(-c2cc(=O)[nH]c(=S)s2)cc1 [CBK288355]  140.489%
15. O=C(NCCOc1ccccc1Cc1ccccc1)c1cncc(Br)c1 [CBK266581]  140.462%
16. O=C(Cc1c[nH]c2ccccc12)N1CCC2(CCCN(C(=O)c3cccc(C(F)(F)F)c3)C2)C1 (stereo not drawn) [CBK131578]  140.172%
17. O=S1(=O)CCN(CC2COc3ccccc3O2)CC1 (stereo not drawn) [CBK074789]  138.814%
18. CN1CCN(C(=O)c2cnc3cc(C(F)(F)F)ccc3c2O)CC1 [CBK107423]  137.836%
19. O=C(Nc1cccc(Cl)c1)Nc1ccc(C(=O)O)c(O)c1 [CBK269518]  137.389%
20. COc1ccccc1CC(c1ccccc1)C1CN(C)CCO1 (stereo not drawn) [CBK009925C]  134.534%
21. c1ccc(-c2cn3ccnc3c(N3CCN(c4ccncc4)CC3)n2)cc1 [CBK066177]  134.07%
22. CCc1cccc(C)c1NC(=O)CN(c1ccc(Br)c(C)c1)S(C)(=O)=O [CBK267935]  133.598%
23. COc1ccc(NC(=O)CC2SC(=N)NC2=O)c([N+](=O)[O-])c1 (stereo not drawn) [CBK265334]  131.996%
24. CCCCNc1cc(N(C)Cc2cnn(C)c2)nc(N)n1 [CBK304167]  130.386%
25. CCN(C)CC(=O)N1CCC(Oc2cc(C)ccc2F)(C(=O)O)CC1 [CBK307020]  130.137%
26. OCCc1ccc(Nc2cc(-c3cc4ccccc4s3)ncn2)cc1 [CBK090770]  127.996%
27. COc1ccccc1N1CCN(c2ccc([N+](=O)[O-])cc2C(=O)O)CC1 [CBK286692]  127.801%
28. c1cc2c(cc1-c1nn3cnnc3s1)OCCO2 [CBK287866]  126.15%
29. COc1cc(C=C2SC(=S)N(CCCCCC(=O)O)C2=O)cc(OC)c1 [CBK297505]  125.501%
30. Cc1ccc(CS(=O)(=O)NCCn2nc(C)c(C)c2C)cc1 [CBK281383]  124.264%
31. O=C(Cc1ccc(Cl)c(Cl)c1)N1CCCC2(CCN(C(=O)c3ccoc3)C2)C1 (stereo not drawn) [CBK131619]  123.29%
32. O=C(c1nc2ccccc2s1)C1CCN(C(=O)c2ccco2)CC1 [CBK284234]  122.277%
33. CCN(CC)CCN(Cc1cc2ccc(C)cc2[nH]c1=O)C(=O)Nc1ccc(Cl)cc1 [CBK068680]  121.437%
34. CC(C)(C)NC(=O)c1nn2c(c1Br)NC(c1cccs1)CC2C(F)(F)F (stereo not drawn) [CBK307175]  120.699%
35. COc1cc(CNS(=O)(=O)c2cc3c(NCCN(C)C)nccc3s2)cc(OC)c1OC [CBK038246C]  120.367%
36. CC(C)c1n[nH]c(=S)n1C1CCc2ccccc21 (stereo not drawn) [CBK288374]  119.484%
37. Cc1ccsc1CN(CCCO)Cc1cn(C)nc1C [CBK282983]  118.521%
38. O=C1CCC(=O)N1CCOc1nccnc1N1CCN(CCc2ccc3ccccc3c2)CC1 [CBK084307]  118.515%
39. O=C(NCCn1nc(-c2ccco2)ccc1=O)c1cccs1 [CBK283704]  118.097%
40. COc1ccc(Cl)cc1NC(=O)CN(c1ccccc1)S(=O)(=O)c1ccc(Cl)cc1 [CBK265261]  116.836%
41. COc1ccc(-c2ccc3c(c2)OC2(CCN(C(=O)c4cc(OC)c(C)c(OC)c4)CC2)CC3=O)cn1 [CBK169424]  116.634%
42. Cc1ccccc1NC(=O)c1cnc2n(c1=O)CCS2 [CBK287374]  113.95%
43. CCOc1cccc(-c2cn3ccnc3c(NCc3cc(OC)c(OC)c(OC)c3)n2)c1 [CBK066717]  113.163%
44. Cc1ccnn1CCC(=O)N1CCC(c2cc3cccnc3[nH]2)CC1 [CBK284912]  112.993%
45. CCCc1nnc2sc(C3CCCN(C(C)C)C3)nn12 (stereo not drawn) [CBK306781]  112.433%
46. O=C(Nc1ncccc1O)c1c(O)c2ccccc2n(Cc2ccccc2)c1=O [CBK291211]  111.362%
47. O=C(CN1CCC(Cc2ccccc2)CC1)Nc1ccc(F)c(Cl)c1 [CBK126387]  110.316%
48. COc1ccc(NC(=O)c2ccccc2CCc2ccccc2)c([N+](=O)[O-])c1 [CBK268632]  109.737%
49. CCC1CCCCN1C(=O)c1ccc(-c2ccccc2)s1 (stereo not drawn) [CBK074215]  109.417%
50. c1ccc(CN2CCN(c3nccnc3OCc3cccnc3)CC2)cc1 [CBK083129T]  109.212%
51. CCc1ccc(CN(C)C(=O)COC(=O)c2cc(-c3ccccc3)nc3onc(C)c23)cc1 [CBK295334]  109.127%
52. COc1cccc(CC(=O)N2CCC(Cc3ccccc3-c3cccs3)(C(N)=O)CC2)c1 [CBK285908]  108.971%
53. CCOC(=O)[C@@]12CC=CCN(C(=O)c3ccco3)[C@@H]1CCC2 [CBK284574]  108.593%
54. CCN(CC(=O)N1CCN(C)CC1)S(=O)(=O)c1cc(Cl)ccc1Cl [CBK269297]  107.11%
55. Cc1ccc(C2CCCN2C(=O)c2ccc(=O)n(CC(=O)N(C)c3ccccc3)c2)cc1C (stereo not drawn) [CBK285653]  106.227%
56. CCCC(=O)NC(c1ccccn1)C1CCC(CNC(C)=O)CC1 (stereo not drawn) [CBK283080]  106.112%
57. O=C1NCCN1c1cccc(Cl)c1 [CBK016915]  105.156%
58. O[C@H]1CN[C@H](c2nc(-c3ccc(OC(F)(F)F)cc3)no2)C1 [CBK288836]  105.075%
59. CC(NC(=O)C1CCN(CCc2ccccc2)CC1)c1ccccc1 (stereo not drawn) [CBK148612]  103.873%
60. C#CCOc1cccc2oc(CCC)cc(=O)c12 [CBK005628]  100%
61. Cc1cc(N2CCN(C(=O)CCc3ccccc3)CC2)nc(C(C)C)n1 [CBK305711]  99.2255%
62. COc1ccc(S(=O)(=O)N(CC(=O)Nc2ccc3c(c2)OCCO3)c2ccc(F)cc2)cc1 [CBK268584]  98.9376%
63. COc1cc(/C=N/NC(=O)CCN2CCN(C)CC2)cc2c1OCO2 [CBK261504]  98.3311%
64. CCOc1ncccc1C(=O)NCc1ccc(COCC(F)(F)F)cc1 [CBK304526]  97.7191%
65. COc1cccc(NC(=O)N2CCC3(CC2)NC(=O)c2cc(-c4ccoc4)ccc2O3)c1 [CBK115855]  97.6145%
66. Cc1noc(C)c1CS(=O)(=O)Cc1ccc(Cl)cc1 [CBK034194]  97.2555%
67. CCCc1n[nH]c(C2CN(CCn3cccn3)CCO2)n1 (stereo not drawn) [CBK304842]  96.9415%
68. CC(C)C(=O)N1CCCC(c2cc3cccnc3[nH]2)C1 (stereo not drawn) [CBK284994]  96.9107%
69. O=C(Cc1ccccc1)N1CCC(c2nc3ccccc3s2)CC1 [CBK070145]  95.4231%
70. Cn1ccnc1CNC(=O)N1CCCC(C(=O)c2cccc(Cl)c2)C1 (stereo not drawn) [CBK307479]  94.4895%
71. N#Cc1ccccc1N1CCN(c2ccc(-c3ccccc3)cn2)CC1 [CBK037590]  93.2922%
72. CCN(CC)S(=O)(=O)c1ccc(CNC(=O)Cc2ccc(Cl)cc2)cc1 [CBK306188]  91.5819%
73. O=C(c1cncnc1)N1CCC2(CCN(C(=O)c3ccoc3)C2)C1 (stereo not drawn) [CBK131755]  89.5964%
74. COc1cccc(/C=N/N2C(=O)c3ccc([N+](=O)[O-])cc3NC2c2cccc(OC)c2O)c1O (stereo not drawn) [CBK074439]  85.2461%
75. CN(C)C(=O)c1cc(Br)cnc1NCc1ccc2c(c1)OCO2 [CBK076293]  76.4281%
76. CCn1c(SCC(=O)c2ccc(F)cc2)nnc1C(C)Oc1ccccc1 (stereo not drawn) [CBK269695]  75.329%
77. CN1CCC2(CCC1=O)CC(N)c1ccccc1O2 (stereo not drawn) [CBK284456]  74.8518%
78. COc1ccc(C(=O)N2CCC3(CCCN(C(=O)c4ccco4)C3)C2)cc1OC (stereo not drawn) [CBK131647]  65.6738%
